The target in assay [1] is UBE3A (yeast two-hybrid bait, pDEST32-UBE3A) (human) (UniProt Q05086). Nature of the assay: two-hybrid; library screen in yeast strain Mav203; E3 ligase bait in pDEST32, prey library of over 20,000 human ORFs in pDEST22; positive colonies survived on SD-4 (deficient in Ura, His, Leu and Trp) plates and were blue with X-Gal; hits identified by sequencing.
Assay [2] addresses UBE3A (in HEK293T cells, co-immunoprecipitation) (human) (UniProt Q05086). In words: co-IP; HEK293T cell lysate in Co-IP buffer (50 mM Tris-Cl pH 7.5, 150 mM NaCl, 5.0 mM EDTA, 1.0% NP-40); specific antibodies with protein G agarose beads or anti-Flag affinity gels; immunoblot.
In assay [3] the target is UFL1 (yeast two-hybrid bait, pDEST32-UFL1) (human) (UniProt O94874). In words: two-hybrid; library screen in yeast strain Mav203; E3 ligase bait in pDEST32, prey library of over 20,000 human ORFs in pDEST22; positive colonies survived on SD-4 (deficient in Ura, His, Leu and Trp) plates and were blue with X-Gal; hits identified by sequencing.

Protein sequences, listed by entry. Tags and fused reporters are not part of them.
UniProt Q05086: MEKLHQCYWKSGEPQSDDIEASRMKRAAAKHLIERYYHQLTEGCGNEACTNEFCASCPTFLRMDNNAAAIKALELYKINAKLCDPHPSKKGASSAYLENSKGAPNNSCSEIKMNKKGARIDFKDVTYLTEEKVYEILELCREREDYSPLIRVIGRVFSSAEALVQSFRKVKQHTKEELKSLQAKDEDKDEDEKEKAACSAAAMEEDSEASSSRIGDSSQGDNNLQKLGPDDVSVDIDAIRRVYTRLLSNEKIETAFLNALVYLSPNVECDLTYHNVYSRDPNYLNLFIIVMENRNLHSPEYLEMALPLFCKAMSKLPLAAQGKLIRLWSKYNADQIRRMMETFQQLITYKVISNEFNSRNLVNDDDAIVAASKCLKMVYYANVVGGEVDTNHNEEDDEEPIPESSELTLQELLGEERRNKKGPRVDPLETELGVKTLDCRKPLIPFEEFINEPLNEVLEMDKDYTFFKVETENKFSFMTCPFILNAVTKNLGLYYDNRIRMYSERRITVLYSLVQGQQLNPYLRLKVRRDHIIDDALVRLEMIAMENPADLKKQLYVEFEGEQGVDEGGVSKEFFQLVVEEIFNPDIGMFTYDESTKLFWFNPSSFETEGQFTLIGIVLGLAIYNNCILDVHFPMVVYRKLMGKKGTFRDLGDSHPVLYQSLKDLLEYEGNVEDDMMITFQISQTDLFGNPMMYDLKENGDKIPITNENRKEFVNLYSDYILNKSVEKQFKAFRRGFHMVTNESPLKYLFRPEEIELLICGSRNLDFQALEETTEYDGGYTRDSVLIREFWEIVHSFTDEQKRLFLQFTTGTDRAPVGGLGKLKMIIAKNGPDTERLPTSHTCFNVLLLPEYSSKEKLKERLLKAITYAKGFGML
UniProt O94874: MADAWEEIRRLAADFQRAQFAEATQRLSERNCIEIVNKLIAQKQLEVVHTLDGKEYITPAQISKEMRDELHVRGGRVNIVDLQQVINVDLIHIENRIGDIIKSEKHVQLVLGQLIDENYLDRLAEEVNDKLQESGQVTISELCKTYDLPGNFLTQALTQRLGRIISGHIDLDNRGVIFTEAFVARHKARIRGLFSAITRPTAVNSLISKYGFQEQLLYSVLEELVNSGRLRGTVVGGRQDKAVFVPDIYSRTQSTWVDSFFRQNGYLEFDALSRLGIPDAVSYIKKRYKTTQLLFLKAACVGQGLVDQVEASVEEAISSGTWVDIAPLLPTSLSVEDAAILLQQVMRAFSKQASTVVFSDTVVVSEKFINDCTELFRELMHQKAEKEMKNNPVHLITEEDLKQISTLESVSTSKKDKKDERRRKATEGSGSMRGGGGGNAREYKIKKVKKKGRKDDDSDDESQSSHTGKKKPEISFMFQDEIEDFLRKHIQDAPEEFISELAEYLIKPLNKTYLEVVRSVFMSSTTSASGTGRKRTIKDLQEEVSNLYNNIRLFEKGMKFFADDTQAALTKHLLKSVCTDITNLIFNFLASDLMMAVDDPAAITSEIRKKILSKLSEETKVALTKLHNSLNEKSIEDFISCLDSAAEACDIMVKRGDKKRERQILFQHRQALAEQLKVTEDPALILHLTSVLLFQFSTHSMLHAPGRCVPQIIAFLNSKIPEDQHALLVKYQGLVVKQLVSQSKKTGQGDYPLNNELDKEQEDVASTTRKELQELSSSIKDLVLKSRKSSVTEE
UniProt P05120: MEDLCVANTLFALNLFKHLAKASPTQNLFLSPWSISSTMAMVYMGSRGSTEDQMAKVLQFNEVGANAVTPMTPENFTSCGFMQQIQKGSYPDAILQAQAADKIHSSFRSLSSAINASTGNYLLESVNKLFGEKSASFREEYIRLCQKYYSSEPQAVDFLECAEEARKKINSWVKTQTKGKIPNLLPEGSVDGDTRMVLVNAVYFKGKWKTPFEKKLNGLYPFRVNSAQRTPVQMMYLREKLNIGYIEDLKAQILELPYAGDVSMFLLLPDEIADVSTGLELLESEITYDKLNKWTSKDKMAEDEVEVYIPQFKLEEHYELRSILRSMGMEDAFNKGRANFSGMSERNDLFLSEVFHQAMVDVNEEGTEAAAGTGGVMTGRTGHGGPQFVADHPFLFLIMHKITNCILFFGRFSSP
UniProt Q8N339: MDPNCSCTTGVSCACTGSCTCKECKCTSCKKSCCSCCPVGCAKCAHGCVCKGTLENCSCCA

Results are given in words; binding and its absence hold for the method and conditions named. For part of these data: In cells and extracts the contact can be indirect. Some entries that bind do so weakly or less than the wild type.

Regarding “SERPINB2 (yeast two-hybrid prey, pDEST22) (from UniProt P05120 1-415)”, the binding entry in assay [1] was “binds”.

Consider “SERPINB2 (in HEK293T cells, co-immunoprecipitation) (from UniProt P05120 1-415)”, for which the binding result in assay [2] is listed as “binds”.

“MT1M (yeast two-hybrid prey, pDEST22) (from UniProt Q8N339 1-61)”: the binding result in assay [3] was “binds”.

For the origin of these results see paper PMC7352202.
